Measured values taken from publication doi:10.1101/2023.08.11.552907.
These are yes or no findings as the source states them, for the method shown. Binding seen in cells or lysates may run through a third protein. Some binding calls cover weakened binding; strength is not graded here.

Chains of the proteins cited; added tags and fusions are not shown. Lines headed by an entry give the natural chain unless they say otherwise; changes in a name come on top. A line that says so, or that is headed by a name, gives the form on record, which may keep a tag or linker.
UniProt P83917: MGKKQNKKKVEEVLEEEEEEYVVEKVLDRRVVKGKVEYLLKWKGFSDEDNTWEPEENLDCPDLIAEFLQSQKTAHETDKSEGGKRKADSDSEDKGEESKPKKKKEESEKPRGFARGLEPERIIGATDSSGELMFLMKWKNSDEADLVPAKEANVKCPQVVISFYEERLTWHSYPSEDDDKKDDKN
HP1β 89/91A with C-terminal GFP (P83917, form named): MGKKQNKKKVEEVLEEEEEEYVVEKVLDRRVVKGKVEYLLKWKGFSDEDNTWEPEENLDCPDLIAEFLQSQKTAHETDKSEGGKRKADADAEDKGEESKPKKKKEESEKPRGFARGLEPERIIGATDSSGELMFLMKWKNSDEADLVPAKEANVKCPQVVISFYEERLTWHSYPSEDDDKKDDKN
UniProt Q61686: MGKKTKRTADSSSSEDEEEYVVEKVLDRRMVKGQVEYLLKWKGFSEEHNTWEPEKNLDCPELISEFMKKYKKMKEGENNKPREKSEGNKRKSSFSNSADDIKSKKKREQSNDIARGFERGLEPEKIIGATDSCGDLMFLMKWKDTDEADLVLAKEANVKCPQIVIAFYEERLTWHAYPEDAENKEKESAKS
UniProt Q69ZA1: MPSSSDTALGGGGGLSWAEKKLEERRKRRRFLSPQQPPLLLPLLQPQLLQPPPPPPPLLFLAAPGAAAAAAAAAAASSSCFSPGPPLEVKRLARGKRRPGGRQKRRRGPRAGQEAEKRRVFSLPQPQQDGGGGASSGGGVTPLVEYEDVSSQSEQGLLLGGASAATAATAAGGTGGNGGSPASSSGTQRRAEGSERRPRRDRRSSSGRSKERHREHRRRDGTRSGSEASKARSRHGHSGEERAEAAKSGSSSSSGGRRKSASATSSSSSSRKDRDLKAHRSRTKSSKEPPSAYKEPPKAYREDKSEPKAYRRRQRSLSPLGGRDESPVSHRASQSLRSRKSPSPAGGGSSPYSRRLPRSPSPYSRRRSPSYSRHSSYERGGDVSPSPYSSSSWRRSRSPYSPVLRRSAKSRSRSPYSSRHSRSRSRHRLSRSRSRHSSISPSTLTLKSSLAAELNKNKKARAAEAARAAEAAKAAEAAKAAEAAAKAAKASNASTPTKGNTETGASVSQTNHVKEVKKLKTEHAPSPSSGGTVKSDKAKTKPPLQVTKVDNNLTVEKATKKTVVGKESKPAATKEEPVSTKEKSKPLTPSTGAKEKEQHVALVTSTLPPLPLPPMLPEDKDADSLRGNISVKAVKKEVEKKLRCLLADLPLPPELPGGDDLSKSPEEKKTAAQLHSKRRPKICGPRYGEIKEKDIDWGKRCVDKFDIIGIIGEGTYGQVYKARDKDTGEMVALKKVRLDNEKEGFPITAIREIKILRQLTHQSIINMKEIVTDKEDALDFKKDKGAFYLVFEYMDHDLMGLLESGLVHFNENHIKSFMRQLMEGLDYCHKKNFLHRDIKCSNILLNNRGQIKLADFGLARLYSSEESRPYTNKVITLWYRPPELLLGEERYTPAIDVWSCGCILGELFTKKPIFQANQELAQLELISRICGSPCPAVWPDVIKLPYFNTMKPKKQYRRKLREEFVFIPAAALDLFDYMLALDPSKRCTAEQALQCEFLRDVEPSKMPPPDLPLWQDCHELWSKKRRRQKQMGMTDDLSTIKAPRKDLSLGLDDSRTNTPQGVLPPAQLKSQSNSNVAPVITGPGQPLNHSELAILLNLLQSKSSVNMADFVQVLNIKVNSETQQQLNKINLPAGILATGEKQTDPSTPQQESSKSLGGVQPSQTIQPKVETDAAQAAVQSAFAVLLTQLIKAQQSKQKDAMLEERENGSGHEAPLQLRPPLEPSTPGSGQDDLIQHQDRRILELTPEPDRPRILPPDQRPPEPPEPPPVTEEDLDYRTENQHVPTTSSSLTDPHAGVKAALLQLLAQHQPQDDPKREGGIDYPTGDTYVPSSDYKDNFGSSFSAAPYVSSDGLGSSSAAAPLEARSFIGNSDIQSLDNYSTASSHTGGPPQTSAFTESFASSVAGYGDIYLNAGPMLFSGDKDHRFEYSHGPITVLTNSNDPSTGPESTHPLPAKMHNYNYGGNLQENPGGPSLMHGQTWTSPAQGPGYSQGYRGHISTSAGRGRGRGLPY
UniProt Q9Z148: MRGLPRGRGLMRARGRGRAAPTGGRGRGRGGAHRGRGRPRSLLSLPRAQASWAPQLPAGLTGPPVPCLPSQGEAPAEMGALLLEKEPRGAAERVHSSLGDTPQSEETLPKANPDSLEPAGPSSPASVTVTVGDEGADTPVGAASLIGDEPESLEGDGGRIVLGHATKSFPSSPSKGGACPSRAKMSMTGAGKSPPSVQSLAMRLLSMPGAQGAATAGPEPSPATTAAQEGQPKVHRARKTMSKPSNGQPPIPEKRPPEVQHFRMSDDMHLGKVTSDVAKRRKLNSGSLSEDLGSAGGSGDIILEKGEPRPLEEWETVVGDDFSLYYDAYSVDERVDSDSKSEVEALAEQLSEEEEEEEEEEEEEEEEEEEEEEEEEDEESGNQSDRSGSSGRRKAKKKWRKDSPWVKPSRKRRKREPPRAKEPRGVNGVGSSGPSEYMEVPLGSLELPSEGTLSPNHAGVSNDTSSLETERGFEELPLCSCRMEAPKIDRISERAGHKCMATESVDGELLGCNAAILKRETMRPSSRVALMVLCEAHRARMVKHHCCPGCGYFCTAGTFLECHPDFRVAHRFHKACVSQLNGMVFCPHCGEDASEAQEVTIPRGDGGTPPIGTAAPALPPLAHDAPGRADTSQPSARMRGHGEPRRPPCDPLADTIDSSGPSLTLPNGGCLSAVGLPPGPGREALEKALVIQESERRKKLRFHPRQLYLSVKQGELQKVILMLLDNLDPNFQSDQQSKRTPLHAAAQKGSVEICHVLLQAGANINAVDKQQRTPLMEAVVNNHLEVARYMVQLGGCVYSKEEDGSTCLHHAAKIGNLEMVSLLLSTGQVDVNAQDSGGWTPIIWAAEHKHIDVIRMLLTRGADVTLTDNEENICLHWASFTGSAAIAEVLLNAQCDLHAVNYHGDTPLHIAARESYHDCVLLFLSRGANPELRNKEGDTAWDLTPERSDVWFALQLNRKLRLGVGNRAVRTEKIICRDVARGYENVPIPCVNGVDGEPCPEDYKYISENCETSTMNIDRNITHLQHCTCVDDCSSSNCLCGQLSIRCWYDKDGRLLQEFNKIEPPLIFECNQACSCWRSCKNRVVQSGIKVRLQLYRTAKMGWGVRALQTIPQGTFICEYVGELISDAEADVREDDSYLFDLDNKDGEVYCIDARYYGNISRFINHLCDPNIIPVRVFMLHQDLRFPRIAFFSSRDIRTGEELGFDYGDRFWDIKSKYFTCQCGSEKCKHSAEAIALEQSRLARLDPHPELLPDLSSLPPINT

Experiments:
Assay in all cases: co-IP
[1] = target: wild-type HP1β with C-terminal GFP (UniProt P83917)
[2] = target: HP1β 89/91A with C-terminal GFP (UniProt P83917)
[3] = target: HP1α (mouse (endogenous in MEFs)) (UniProt Q61686)

Row | Substance | binding [1] | binding [2] | binding [3]
1 | Flag-tagged Cdk13 (from UniProt Q69ZA1 1-1511) (enzyme) | binds | – | –
2 | G9a (from UniProt Q9Z148 1-1263) (enzyme) | binds | binds | binds
3 | HP1β (endogenous) (from UniProt P83917 1-185) | – | – | binds
